{
  "sequences": {"note": "By UniProt entry, the sequences of proteins in these tests, tags left out. Residues count along the entry.", "UniProt Q8R1Q8": "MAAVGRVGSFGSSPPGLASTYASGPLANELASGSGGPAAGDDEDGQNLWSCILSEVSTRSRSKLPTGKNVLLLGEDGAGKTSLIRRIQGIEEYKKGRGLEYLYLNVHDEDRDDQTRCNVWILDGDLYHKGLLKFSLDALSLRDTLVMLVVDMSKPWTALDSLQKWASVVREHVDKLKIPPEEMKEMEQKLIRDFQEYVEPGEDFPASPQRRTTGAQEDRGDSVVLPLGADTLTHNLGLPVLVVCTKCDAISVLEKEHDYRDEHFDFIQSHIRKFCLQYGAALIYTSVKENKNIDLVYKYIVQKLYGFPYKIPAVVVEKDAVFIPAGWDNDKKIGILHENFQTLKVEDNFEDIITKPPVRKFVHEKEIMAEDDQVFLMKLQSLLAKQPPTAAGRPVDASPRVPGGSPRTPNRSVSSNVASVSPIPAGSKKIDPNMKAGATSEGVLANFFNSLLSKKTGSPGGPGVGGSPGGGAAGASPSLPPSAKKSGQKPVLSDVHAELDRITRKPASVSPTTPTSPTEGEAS", "UniProt D3Z7P3, residues 55-674": "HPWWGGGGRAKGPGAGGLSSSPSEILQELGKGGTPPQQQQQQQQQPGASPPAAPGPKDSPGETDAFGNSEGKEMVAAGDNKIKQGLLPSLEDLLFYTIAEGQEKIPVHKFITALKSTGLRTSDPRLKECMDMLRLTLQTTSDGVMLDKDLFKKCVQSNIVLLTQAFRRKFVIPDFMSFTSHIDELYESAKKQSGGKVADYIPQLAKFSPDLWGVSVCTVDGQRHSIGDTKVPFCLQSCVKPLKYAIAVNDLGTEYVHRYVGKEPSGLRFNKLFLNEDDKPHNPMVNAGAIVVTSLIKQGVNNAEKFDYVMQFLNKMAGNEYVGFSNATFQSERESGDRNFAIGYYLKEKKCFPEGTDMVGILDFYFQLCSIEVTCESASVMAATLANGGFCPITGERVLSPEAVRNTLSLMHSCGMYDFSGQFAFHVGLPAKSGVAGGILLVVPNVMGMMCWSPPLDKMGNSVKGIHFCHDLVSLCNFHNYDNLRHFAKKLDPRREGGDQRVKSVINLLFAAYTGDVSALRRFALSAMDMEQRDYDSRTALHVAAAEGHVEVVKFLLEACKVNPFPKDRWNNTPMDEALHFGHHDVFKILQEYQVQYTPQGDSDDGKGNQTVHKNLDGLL", "UniProt P53994": "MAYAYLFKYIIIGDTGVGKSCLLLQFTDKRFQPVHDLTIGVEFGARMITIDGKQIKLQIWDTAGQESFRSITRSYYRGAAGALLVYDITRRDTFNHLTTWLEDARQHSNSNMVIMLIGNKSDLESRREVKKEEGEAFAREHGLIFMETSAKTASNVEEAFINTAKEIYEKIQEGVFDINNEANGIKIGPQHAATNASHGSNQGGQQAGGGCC", "UniProt Q9Z1G4": "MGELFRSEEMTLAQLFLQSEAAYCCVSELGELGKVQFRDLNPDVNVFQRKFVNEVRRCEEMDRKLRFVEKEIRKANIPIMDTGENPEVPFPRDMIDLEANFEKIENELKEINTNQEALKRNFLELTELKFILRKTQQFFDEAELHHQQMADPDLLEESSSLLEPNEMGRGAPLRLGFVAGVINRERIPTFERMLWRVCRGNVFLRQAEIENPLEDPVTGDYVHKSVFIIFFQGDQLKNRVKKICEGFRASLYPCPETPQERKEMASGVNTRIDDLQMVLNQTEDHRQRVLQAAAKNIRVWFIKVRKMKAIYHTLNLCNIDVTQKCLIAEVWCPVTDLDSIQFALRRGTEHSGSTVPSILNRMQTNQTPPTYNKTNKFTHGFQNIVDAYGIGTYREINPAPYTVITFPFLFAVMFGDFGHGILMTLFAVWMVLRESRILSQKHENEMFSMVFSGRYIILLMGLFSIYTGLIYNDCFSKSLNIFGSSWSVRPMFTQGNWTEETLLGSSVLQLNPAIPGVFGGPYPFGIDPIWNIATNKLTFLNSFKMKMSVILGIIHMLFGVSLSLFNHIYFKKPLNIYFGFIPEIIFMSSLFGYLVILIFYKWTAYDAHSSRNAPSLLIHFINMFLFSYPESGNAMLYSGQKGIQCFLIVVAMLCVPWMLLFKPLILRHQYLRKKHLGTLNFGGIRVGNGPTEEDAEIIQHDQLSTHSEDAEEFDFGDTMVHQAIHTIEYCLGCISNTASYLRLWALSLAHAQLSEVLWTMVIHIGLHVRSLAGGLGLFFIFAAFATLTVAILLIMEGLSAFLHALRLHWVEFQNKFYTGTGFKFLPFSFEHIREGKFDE", "UniProt Q62261": "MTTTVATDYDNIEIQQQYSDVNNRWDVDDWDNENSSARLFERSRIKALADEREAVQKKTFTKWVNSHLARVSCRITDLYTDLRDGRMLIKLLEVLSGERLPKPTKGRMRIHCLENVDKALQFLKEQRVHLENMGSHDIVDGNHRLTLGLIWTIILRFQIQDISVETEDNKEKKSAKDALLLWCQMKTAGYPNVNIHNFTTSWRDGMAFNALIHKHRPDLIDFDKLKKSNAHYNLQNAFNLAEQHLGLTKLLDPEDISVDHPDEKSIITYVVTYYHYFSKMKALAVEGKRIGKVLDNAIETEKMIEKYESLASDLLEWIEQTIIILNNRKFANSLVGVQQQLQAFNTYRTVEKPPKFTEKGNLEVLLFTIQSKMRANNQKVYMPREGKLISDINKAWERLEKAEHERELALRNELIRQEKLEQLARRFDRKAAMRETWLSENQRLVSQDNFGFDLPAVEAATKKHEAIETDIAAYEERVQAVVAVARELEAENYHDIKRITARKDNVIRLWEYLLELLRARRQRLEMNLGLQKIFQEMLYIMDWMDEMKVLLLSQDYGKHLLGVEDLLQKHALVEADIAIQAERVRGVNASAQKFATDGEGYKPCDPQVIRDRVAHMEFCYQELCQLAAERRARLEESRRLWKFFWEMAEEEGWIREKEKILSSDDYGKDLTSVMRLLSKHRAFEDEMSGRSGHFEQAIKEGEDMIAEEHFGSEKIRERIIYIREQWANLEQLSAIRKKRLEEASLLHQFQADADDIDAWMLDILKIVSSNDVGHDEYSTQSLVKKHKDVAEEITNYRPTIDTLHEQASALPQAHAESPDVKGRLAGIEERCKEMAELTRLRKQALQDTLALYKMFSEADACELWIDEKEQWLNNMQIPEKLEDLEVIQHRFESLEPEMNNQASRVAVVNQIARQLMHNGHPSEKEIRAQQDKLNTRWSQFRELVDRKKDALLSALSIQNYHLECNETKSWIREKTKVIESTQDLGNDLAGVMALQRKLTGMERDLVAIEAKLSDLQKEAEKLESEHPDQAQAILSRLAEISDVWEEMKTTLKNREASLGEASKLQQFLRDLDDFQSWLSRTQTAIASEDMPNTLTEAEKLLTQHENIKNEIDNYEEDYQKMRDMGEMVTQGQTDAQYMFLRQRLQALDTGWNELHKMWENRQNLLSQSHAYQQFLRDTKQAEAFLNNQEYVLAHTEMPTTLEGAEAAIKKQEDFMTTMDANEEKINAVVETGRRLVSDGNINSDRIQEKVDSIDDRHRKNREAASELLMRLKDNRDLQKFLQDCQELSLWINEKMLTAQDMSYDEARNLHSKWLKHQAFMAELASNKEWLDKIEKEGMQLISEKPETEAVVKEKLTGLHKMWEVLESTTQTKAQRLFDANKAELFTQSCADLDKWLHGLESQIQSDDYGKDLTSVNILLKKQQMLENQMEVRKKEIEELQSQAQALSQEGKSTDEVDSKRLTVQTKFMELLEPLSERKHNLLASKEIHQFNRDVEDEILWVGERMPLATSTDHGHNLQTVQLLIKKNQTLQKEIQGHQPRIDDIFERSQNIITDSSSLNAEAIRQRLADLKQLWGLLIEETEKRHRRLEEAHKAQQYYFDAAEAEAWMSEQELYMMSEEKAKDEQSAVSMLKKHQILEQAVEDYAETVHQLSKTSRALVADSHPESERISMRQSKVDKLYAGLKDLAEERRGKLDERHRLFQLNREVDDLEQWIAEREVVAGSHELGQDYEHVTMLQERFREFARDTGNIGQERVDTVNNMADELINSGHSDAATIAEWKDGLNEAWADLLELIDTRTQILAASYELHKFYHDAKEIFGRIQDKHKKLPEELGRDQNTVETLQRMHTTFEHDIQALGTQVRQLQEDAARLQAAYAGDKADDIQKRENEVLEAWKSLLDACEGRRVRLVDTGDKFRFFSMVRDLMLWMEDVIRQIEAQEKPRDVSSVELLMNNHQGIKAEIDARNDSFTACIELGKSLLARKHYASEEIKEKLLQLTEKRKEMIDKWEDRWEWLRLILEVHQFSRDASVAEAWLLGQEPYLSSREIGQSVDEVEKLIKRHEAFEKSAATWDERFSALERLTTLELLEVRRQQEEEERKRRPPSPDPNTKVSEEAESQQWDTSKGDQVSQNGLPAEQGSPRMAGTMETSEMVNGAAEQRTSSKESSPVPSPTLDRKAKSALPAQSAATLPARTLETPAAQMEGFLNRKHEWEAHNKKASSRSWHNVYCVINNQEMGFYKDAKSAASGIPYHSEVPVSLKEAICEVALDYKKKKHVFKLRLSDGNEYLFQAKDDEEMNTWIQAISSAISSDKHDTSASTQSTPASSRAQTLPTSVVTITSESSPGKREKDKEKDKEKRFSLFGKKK", "UniProt Q99KJ8": "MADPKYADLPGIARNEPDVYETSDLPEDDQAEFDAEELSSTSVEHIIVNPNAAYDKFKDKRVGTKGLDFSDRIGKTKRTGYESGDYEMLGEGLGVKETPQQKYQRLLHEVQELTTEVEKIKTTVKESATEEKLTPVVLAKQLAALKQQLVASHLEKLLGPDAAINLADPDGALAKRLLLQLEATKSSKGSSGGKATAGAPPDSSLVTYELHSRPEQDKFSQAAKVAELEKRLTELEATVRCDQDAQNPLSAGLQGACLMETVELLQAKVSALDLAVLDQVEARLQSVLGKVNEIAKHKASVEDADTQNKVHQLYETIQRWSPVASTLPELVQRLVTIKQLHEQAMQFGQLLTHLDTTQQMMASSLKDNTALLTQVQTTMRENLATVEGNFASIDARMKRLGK", "UniProt Q501J6": "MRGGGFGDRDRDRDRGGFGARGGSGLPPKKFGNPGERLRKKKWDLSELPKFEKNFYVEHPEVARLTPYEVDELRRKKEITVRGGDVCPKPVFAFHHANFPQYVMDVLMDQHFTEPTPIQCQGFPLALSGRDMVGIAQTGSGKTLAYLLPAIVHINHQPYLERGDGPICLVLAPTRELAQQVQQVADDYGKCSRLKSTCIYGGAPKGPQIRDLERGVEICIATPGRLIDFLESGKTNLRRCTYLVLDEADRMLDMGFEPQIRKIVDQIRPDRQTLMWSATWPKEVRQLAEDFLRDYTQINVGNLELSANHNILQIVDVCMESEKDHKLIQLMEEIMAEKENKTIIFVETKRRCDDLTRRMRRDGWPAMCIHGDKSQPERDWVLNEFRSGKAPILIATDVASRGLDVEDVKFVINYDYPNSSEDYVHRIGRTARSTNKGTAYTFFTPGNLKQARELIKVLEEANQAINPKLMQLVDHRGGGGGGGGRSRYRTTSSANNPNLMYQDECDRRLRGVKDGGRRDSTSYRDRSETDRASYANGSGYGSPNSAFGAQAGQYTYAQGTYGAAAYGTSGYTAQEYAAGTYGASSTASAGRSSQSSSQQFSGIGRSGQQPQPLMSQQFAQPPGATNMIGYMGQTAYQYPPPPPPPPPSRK", "UniProt P63330": "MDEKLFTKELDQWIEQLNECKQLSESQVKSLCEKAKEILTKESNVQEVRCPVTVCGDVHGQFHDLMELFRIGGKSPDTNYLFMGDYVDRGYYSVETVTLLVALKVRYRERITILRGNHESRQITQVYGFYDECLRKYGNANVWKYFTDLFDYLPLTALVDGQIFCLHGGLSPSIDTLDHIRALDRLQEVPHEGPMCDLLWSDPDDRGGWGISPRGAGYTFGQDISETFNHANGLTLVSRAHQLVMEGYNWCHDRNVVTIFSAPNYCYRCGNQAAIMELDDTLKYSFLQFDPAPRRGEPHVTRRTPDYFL", "UniProt Q9CPQ1": "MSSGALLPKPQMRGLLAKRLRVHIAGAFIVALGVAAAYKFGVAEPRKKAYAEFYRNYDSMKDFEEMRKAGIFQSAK", "UniProt Q923T9": "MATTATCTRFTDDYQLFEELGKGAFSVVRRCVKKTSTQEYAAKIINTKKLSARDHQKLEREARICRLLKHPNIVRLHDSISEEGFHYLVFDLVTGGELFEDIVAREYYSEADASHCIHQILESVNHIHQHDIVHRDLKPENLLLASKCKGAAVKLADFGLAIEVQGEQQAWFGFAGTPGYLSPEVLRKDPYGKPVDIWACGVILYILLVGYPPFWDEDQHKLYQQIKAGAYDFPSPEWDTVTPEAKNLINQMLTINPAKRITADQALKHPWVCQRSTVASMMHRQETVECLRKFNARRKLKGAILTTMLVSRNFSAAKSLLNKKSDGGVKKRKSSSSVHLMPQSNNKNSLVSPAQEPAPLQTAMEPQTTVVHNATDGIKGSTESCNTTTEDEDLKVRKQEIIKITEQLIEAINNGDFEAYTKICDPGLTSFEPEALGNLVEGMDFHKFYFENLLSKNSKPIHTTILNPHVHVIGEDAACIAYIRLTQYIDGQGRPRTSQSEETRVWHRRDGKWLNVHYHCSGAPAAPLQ"},
  "source": "paper PMC5640428",
  "molecules": {"B1": {"name": "STMN2 (protein, UniProt P55821 1-179)", "chain": "MAKTAMAYKEKMKELSMLSLICSCFYPEPRNINIYTYDDMEVKQINKRASGQAFELILKPPSPISEAPRTLASPKKKDLSLEEIQKKLEAAEERRKSQEAQVLKQLAEKREHEREVLQKALEENNNFSKMAEEKLILKMEQIKENREANLAAIIERLQEKERHAAEVRRNKELQVELSG"}, "B2": {"name": "TNR (protein, UniProt Q8BYI9 32-1358)", "chain": "RLEVTTERAQRQTVEEEGGASSYNTSSKEQPMVFNHVYNINVPLESLCSSGLEASAEQDMSAEDDTLAEYIGQTSDHESQVTFTHKINLPKKACPCASSSQVLQELLSRIEMLEREVSLLRDQCNTNCCQESAATGQLDYVPHCSGHGNFSFESCGCICNEGWFGKNCSEPYCPLGCSSRGVCVDGQCICDSEYSGDDCSELRCPTDCSSRGLCVDGECVCEEPYTGEDCRELRCPGDCSGKGQCANGTCLCQEGYAGEDCSQRRCLNACSGRGHCQEGLCICEEGYQGPDCSAVAPPEDLRVAGISDRSIELEWDGPMAVTEYVISYQPTALGGLQLQQRVPGDWSGVTIMELEPGLTYNISVYAVISNILSLPITAKVATHLSTPQGLQFKTITETTVEVQWEPFSFSFDGWEISFIPKNNEGGVIAQLPSDVTSFNQTGLKPGEEYIVNVVALKEQARSPPTSASVSTVIDGPTQILVRDVSDTVAFVEWTPPRAKVDFILLKYGLVGGEGGKTTFRLQPPLSQYSVQALRPGSRYEVSISAVRGTNESEASSTQFTTEIDAPKNLRVGSRTATSLDLEWDNSEAEAQEYKVVYSTLAGEQYHEVLVPKGIGPTTKTTLTDLVPGTEYGVGISAVMNSKQSIPATMNARTELDSPRDLMVTASSETSISLIWTKASGPIDHYRITFTPSSGISSEVTVPRDRTSYTLTDLEPGAEYIISITAERGRQQSLESTVDAFTGFRPISHLHFSHVTSSSVNITWSDPSPPADRLILNYSPRDKEEDMLEVLLDATKRHAVLMGLQPATEYIVNLVAVHGTVTSEPIVGSITTGIDPPKNITISNVTKDSLTVSWSSPVAPFDYYRVSYRPTQVGRLDSSVVPNTVTEFAITRLYPATEYEISLNSVRGREESERICTLVHTAMDSPMDLIATNITPTEALLQWKAPMGEVENYVIVLTHFAIAGETILVDGVSEEFQLVDLLPSTHYTVTMYATSGPLMSGTIATNFSTLLDPPDNLTASEVTRQSALISWQPPRAAIENYVLTYKSTDGSRKELIVDAEDTWIRLEGLSENTDYTVLLQAAQEATRSSLTSTVFTTGGRVFSHPQDCAQHLMNGDTLSGVYTIFLNGELSHKLQVYCDMTTDGGGWIVFQRRQNGQTDFFRKWADYRVGFGNLEDEFWLGLDNIHRITAQGRYELRVDMRDGQEAVFAYYDKFAVEDSRSLYKIRIGSYNGTAGDSLSYHQGRPFSTEDRDNDVAVTNCAMSYKGAWWYKNCHRTNLNGKYGESRHSQGINWYHWKGHEFSIPFVEMKMRPYIHRLTAGRKRRALKF"}, "B3": {"name": "ATP5C1 (protein, UniProt Q91VR2 26-298)", "chain": "ATLKDITRRLKSIKNIQKITKSMKMVAAAKYARAERELKPARVYGTGSLALYEKADIKAPEDKKKHLIIGVSSDRGLCGAIHSSVAKQMKNEVAALTAAGKEVMIVGVGEKIKGILYRTHSDQFLVSFKDVGRKPPTFGDASVIALELLNSGYEFDEGSIIFNQFKSVISYKTEEKPIFSLNTIATAETMSIYDDIDADVLQNYQEYNLANLIYYSLKESTTSEQSARMTAMDNASKNASDMIDKLTLTFNRTRQAVITKELIEIISGAAALD"}},
  "note": "Results are given in words; binding and its absence hold for the method and conditions named. In cells and extracts the contact can be indirect. Here binding means that the protein was enriched with, or labelled near, the bait; the list need not be complete.",
  "data": [
    {"target": "T1, native KCC2 (K+-Cl- cotransporter KCC2) (mouse (endogenous in brain)) (UniProt Q91V14)", "T1 sequence": "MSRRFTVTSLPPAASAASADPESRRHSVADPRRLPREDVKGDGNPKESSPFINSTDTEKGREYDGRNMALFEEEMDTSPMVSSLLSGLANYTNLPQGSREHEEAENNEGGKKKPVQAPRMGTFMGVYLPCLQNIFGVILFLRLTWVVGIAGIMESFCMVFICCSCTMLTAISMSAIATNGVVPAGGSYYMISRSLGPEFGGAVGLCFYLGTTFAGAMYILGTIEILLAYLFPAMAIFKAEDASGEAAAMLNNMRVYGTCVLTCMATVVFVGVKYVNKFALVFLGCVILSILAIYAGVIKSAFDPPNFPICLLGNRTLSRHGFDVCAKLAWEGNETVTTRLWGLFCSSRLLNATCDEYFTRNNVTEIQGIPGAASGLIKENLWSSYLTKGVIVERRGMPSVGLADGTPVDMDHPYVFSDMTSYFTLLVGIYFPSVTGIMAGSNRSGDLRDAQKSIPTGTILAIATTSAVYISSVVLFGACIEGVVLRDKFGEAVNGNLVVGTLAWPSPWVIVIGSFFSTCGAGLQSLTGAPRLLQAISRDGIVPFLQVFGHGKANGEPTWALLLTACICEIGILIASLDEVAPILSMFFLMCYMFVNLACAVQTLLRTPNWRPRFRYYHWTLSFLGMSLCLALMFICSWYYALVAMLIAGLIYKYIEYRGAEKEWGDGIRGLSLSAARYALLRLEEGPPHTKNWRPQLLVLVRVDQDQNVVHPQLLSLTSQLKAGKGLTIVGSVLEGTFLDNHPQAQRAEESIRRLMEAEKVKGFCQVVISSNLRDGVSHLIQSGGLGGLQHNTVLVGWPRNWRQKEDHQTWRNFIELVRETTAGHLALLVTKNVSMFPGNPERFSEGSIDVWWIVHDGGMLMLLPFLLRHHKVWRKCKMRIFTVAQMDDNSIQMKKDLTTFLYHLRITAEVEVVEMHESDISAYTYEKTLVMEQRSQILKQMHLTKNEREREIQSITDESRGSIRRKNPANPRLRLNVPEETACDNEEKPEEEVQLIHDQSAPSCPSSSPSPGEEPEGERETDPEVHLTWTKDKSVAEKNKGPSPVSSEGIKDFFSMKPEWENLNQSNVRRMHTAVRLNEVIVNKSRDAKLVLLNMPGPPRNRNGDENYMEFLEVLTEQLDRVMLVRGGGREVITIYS", "experiment": "affinity purification with mass spectrometry; anti-KCC2 antibodies (C-terminal, N-terminal KCC2b, pS940) cross-linked with DMP to GammaBind IgG beads; C12E9-solubilised whole-brain membrane fractions of P5 and P50 mice; 4 hr, 4°C; parallel IgG/IgY controls", "values": [
      {"molecule": "SNRPA (from UniProt Q62189 1-287)", "binding": "binds"},
      {"molecule": "DDX3X (from UniProt Q62167 1-662)", "binding": "binds"},
      {"molecule": "YWHAE (from UniProt P62259 1-255)", "binding": "binds"},
      {"molecule": "PACSIN1 (PKC and CSNK2A1 substrate in neurons) (from UniProt Q61644 1-441)", "binding": "binds"},
      {"molecule": "SYT1 (from UniProt P46096 1-421)", "binding": "binds"},
      {"molecule": "ACTN4 (from UniProt P57780 1-912)", "binding": "binds"},
      {"molecule": "CKMT1 (from UniProt P30275 40-418)", "binding": "binds"},
      {"molecule": "DYNC1LI1 (from UniProt Q8R1Q8 1-523)", "binding": "binds"},
      {"molecule": "CCT5 (from UniProt P80316 1-541)", "binding": "binds"},
      {"molecule": "DNAJA3 (mouse (endogenous in brain))", "binding": "binds"},
      {"molecule": "cofilin1 (from UniProt P18760 1-166)", "binding": "binds"},
      {"molecule": "FASN (from UniProt P19096 1-2504)", "binding": "binds"},
      {"molecule": "PPFIA3 (from UniProt P60469 1-1194)", "binding": "binds"},
      {"molecule": "TUBB4B (from UniProt P68372 1-445)", "binding": "binds"},
      {"molecule": "PPP1CA (from UniProt P62137 1-330)", "binding": "binds"},
      {"molecule": "VCP (from UniProt Q01853 1-806)", "binding": "binds"},
      {"molecule": "CAMK2D (from UniProt Q6PHZ2 1-499)", "binding": "binds"},
      {"molecule": "GLS (from UniProt D3Z7P3 55-674)", "binding": "binds"},
      {"molecule": "YWHAZ (from UniProt P63101 1-245)", "binding": "binds"},
      {"molecule": "LGI3 (from UniProt Q8K406 31-548)", "binding": "binds"},
      {"molecule": "RAB2A (from UniProt P53994 1-212)", "binding": "binds"},
      {"molecule": "ATP6V0A1 (from UniProt Q9Z1G4 1-839)", "binding": "binds"},
      {"molecule": "SPTBN1 (from UniProt Q62261 1-2363)", "binding": "binds"},
      {"molecule": "PPIA (from UniProt P17742 1-164)", "binding": "binds"},
      {"molecule": "WWP1 (from UniProt Q8BZZ3 1-918)", "binding": "binds"},
      {"molecule": "BSN (from UniProt O88737 1-3942)", "binding": "binds"},
      {"molecule": "SLC8A2 (from UniProt Q8K596 21-921)", "binding": "binds"},
      {"molecule": "DCTN2 (from UniProt Q99KJ8 1-402)", "binding": "binds"},
      {"molecule": "DPYSL3 (from UniProt Q62188 1-570)", "binding": "binds"},
      {"molecule": "NDUFA9 (from UniProt Q9DC69 36-377)", "binding": "binds"},
      {"molecule": "CRMP1 (from UniProt P97427 1-572)", "binding": "binds"},
      {"molecule": "NUDT21 (from UniProt Q9CQF3 1-227)", "binding": "binds"},
      {"molecule": "GNB1 (from UniProt P62874 1-340)", "binding": "binds"},
      {"molecule": "sodium/potassium ATPase subunit 2 (from UniProt Q6PIE5 1-1020)", "binding": "binds"},
      {"molecule": "HMCN2 (from UniProt A2AJ76 20-5100)", "binding": "binds"},
      {"molecule": "DDX17 (from UniProt Q501J6 1-650)", "binding": "binds"},
      {"molecule": "TUBB4A (from UniProt Q9D6F9 1-444)", "binding": "binds"},
      {"molecule": "PPP2CA (from UniProt P63330 1-309)", "binding": "binds"},
      {"molecule": "ATP6V1F (from UniProt Q9D1K2 1-119)", "binding": "binds"},
      {"molecule": "SNAP25 (from UniProt P60879 1-206)", "binding": "binds"},
      {"molecule": "NEDD4L (from UniProt Q8CFI0 1-1004)", "binding": "binds"},
      {"molecule": "USP24 (from UniProt B1AY13 1-2617)", "binding": "binds"},
      {"molecule": "CCT6A (from UniProt P80317 1-531)", "binding": "binds"},
      {"molecule": "COX6C (from UniProt Q9CPQ1 1-76)", "binding": "binds"},
      {"molecule": "CAMK2G (from UniProt Q923T9 1-529)", "binding": "binds"},
      {"molecule": "NDUFS8 (from UniProt Q8K3J1 35-212)", "binding": "binds"},
      {"molecule": "NDUFS1 (from UniProt Q91VD9 24-727)", "binding": "binds"},
      {"molecule": "STX1B (from UniProt P61264 1-288)", "binding": "binds"},
      {"molecule": "DHX9 (from UniProt O70133 1-1380)", "binding": "binds"},
      {"molecule": "EWSR1 (from UniProt Q61545 1-655)", "binding": "binds"},
      {"molecule": "KIF21B (from UniProt Q9QXL1 1-1668)", "binding": "binds"},
      {"molecule": "ATP5H (from UniProt Q9DCX2 1-161)", "binding": "binds"},
      {"molecule": "C1QB (from UniProt P14106 26-253)", "binding": "binds"},
      {"molecule": "PKM (from UniProt P52480 1-531)", "binding": "binds"},
      {"molecule": "SLC1A2 (from UniProt P43006 1-572)", "binding": "binds"},
      {"molecule": "NDUFA2 (from UniProt Q9CQ75 1-99)", "binding": "binds"},
      {"molecule": "ATP2A2 (from UniProt O55143 1-1044)", "binding": "binds"},
      {"molecule": "creatine kinase B (from UniProt Q04447 1-381)", "binding": "binds"},
      {"molecule": "ACOX3 (from UniProt Q9EPL9 1-700)", "binding": "binds"},
      {"molecule": "ATP2B2 (from UniProt Q9R0K7 1-1198)", "binding": "binds"},
      {"molecule": "TCP1 (from UniProt P11983 1-556)", "binding": "binds"},
      {"molecule": "CSNK2A1 (from UniProt Q60737 1-391)", "binding": "binds"},
      {"molecule": "B1", "binding": "binds"},
      {"molecule": "B2", "binding": "binds"},
      {"molecule": "B3", "binding": "binds"}
    ]}
  ]
}
